Counter-ions that a name gives are not always drawn. The list shows a part of the results. Most values lie within the scatter of the assay; repeated measurements hardly agree.
These compounds were tested on MDA-MB-468 (assay: phospho-S6 immunofluorescence (DAPI-normalised), per-plate z-score; higher = higher phospho-S6 signal (less pathway suppression)). Conditions: compound 1 µM; co-treatment: GDC0941 450 nM; 24 h.
Method: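 GPCR-targeted compound library (MedChemExpress HY-L006) tested on MDA-MB-468 PTEN-null TNBC cells in 384-well plates at 0.1, 1 or 10 uM, combined with vehicle, GDC0941 450 nM or lapatinib 1 uM, for 24 h. Phospho-S6 (S240/244) immunofluorescence normalised to DAPI and expressed as a per-plate z-score; values are the mean of biological triplicates.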

SMILES	phospho-S6 immunofluorescence (z-score)
Nc1ccc(/C=C/c2cccc(C(=O)O)n2)cc1	0.34
CC(C)C(=O)OCC(=O)[C@@]12O[C@H](C3CCCCC3)O[C@@H]1C[C@H]1[C@@H]3CCC4=CC(=O)C=C[C@]4(C)[C@H]3[C@@H](O)C[C@@]12C [Ciclesonide]	-0.19
N#Cc1ccc2[nH]cc(CCCCN3CCN(c4ccc5oc(C(N)=O)cc5c4)CC3)c2c1 [Vilazodone]	0.59
Cc1ccc(Sc2ccccc2N2CCNCC2)c(C)c1 [Vortioxetine]	-0.84
CN(C)CCCN1c2ccccc2Sc2ccc(Cl)cc21 [Chlorpromazine (hydrochloride)]	0.64
Clc1ccc(Cn2c(CN3CCCC3)nc3ccccc32)cc1 [Clemizole (hydrochloride)]	-2.66
CCCc1nc(C(C)(C)O)c(C(=O)O)n1Cc1ccc(-c2ccccc2-c2nnn[nH]2)cc1 [Olmesartan]	-0.01
CC(N)(C(=O)O)c1ccc(C(=O)O)cc1 (racemic)	0.51
c1cc(CN2CCCNCCNCCCNCC2)ccc1CN1CCCNCCNCCCNCC1 [Plerixafor (octahydrochloride)]	-0.58
CN1CCC[C@@H]1CCO[C@](C)(c1ccccc1)c1ccc(Cl)cc1 [Clemastine (fumarate)]	1.54
Cc1nc2c([nH]1)-c1ccccc1N(C(=O)c1ccc(NC(=O)c3ccccc3-c3ccccc3)cc1)CC2 [Conivaptan (hydrochloride)]	1.94
COc1nc(C)cnc1NS(=O)(=O)c1cccnc1-c1ccc(-c2nnco2)cc1 [Zibotentan]	-1.46
O=C(Nc1ccccc1)C12CC1C(=NO)c1ccccc1O2 (stereo not given)	0
O=C(CCCN1CCC(O)(c2ccc(Cl)cc2)CC1)c1ccc(F)cc1 [Haloperidol]	2.25
COc1ccc2cc(OCC3(C(=O)O)CN(C(=O)c4ccc(F)cc4)C3)ccc2c1	0.05
CC(C)C[C@H](NC(=O)CNC(=O)[C@H](Cc1ccc(O)cc1)NC(=O)[C@H](CO)NC(=O)[C@H](Cc1c[nH]c2ccccc12)NC(=O)[C@H](Cc1cnc[nH]1)NC(=O)[C@@H]1CCC(=O)N1)C(=O)N[C@@H](CCCNC(=N)N)C(=O)N1CCC[C@H]1C(=O)NCC(N)=O [Gonadorelin (acetate)]	-0.03
CN1CCC(=C2c3ccccc3CC(=O)c3sccc32)CC1 [Ketotifen (fumarate)]	-0.2
CN1CCC(OC(c2ccccc2)c2ccccc2)CC1 [Diphenylpyraline (hydrochloride)]	1.23
Cn1c(=O)c2nc[nH]c2n(C)c1=O [Theophylline]	-0.2
CC(=O)OCC(=O)[C@@]1(O)[C@H](C)C[C@H]2[C@@H]3CCC4=CC(=O)C=C[C@]4(C)[C@@]3(F)[C@@H](O)C[C@@]21C [Dexamethasone (acetate)]	-0.57

Same assay, conditions: compound 1 µM; co-treatment: lapatinib 1 uM; 24 h

SMILES	phospho-S6 immunofluorescence (z-score)
Cc1cncc(CN2CCC(=C3c4ccc(Cl)cc4CCc4cccnc43)CC2)c1 [Rupatadine (Fumarate)]	0.46
Cn1cc(C(=O)[C@@H]2CCc3[nH]cnc3C2)c2ccccc21 [Ramosetron (Hydrochloride)]	-0.32
N#Cc1cc(NC(=O)C(=O)O)c(Cl)c(NC(=O)C(=O)O)c1 [Lodoxamide]	-0.13
OCCOCCN1CCN(C(c2ccccc2)c2ccc(Cl)cc2)CC1 (stereo not given) [Hydroxyzine (dihydrochloride)]	0.11
COc1ccc2c(c1OC)C(=O)O[C@@H]2[C@H]1c2c(cc3c(c2OC)OCO3)CCN1C [Noscapine]	-0.15
CCc1nn(CCCN2CCN(c3cccc(Cl)c3)CC2)c(=O)n1CCOc1ccccc1 [Nefazodone (hydrochloride)]	0.24
CN(C)CCCN1c2ccccc2Sc2ccccc21 [Promazine (hydrochloride)]	-0.93
CN(C)CCC(c1ccc(Cl)cc1)c1ccccn1 (stereo not given) [Chlorpheniramine (maleate)]	-2.23
CCCCc1nc(C)c(CC(=S)N(C)C)c(=O)n1Cc1ccc(-c2ccccc2-c2nnn[nH]2)cc1 [Fimasartan]	0.41
C[N+]1(C)CCC(=C(c2ccccc2)c2ccccc2)CC1 [Diphenmanil (methylsulfate)]	0.24
OCCOCCN1CCN(C2=Nc3ccccc3Sc3ccccc32)CC1 [Quetiapine (fumarate)]	-1.22
COc1cc2nc(N3CCN(C(=O)c4ccco4)CC3)nc(N)c2cc1OC [Prazosin (hydrochloride)]	-0.37
N=C(N)NCCCCN [Agmatine (sulfate)]	-0.2
CN1CCN(C(=O)c2cc3cc(Cl)ccc3[nH]2)CC1	-0.29
CN1CCc2cc(Cl)c(O)cc2[C@@H](c2ccccc2)C1	-0.31
COc1cc2nc(N3CCN(C(=O)C4CCCO4)CC3)nc(N)c2cc1OC (stereo not given) [Terazosin (hydrochloride dihydrate)]	-0.9
NCCc1c[nH]cn1 [Histamine]	-0.07
CCN1CCCC1CNC(=O)c1cc(S(N)(=O)=O)ccc1OC (stereo not given) [Sulpiride]	-0.7
COCCOc1ccc(N2CCN(CCn3ncc4c3nc(N)n3nc(-c5ccco5)nc43)CC2)cc1 [Preladenant]	0.18
CCN(CC)CCNC(=O)c1cc(Cl)c(N)cc1OC [Metoclopramide (hydrochloride hydrate)]	0.37

SMILES	phospho-S6 immunofluorescence (z-score)
Nc1ccc(/C=C/c2cccc(C(=O)O)n2)cc1	0.45
CC(C)C(=O)OCC(=O)[C@@]12O[C@H](C3CCCCC3)O[C@@H]1C[C@H]1[C@@H]3CCC4=CC(=O)C=C[C@]4(C)[C@H]3[C@@H](O)C[C@@]12C [Ciclesonide]	-2.8
N#Cc1ccc2[nH]cc(CCCCN3CCN(c4ccc5oc(C(N)=O)cc5c4)CC3)c2c1 [Vilazodone]	-0.7
Cc1ccc(Sc2ccccc2N2CCNCC2)c(C)c1 [Vortioxetine]	-1.59
CN(C)CCCN1c2ccccc2Sc2ccc(Cl)cc21 [Chlorpromazine (hydrochloride)]	0.1
Clc1ccc(Cn2c(CN3CCCC3)nc3ccccc32)cc1 [Clemizole (hydrochloride)]	0.96
CCCc1nc(C(C)(C)O)c(C(=O)O)n1Cc1ccc(-c2ccccc2-c2nnn[nH]2)cc1 [Olmesartan]	0.14
CC(N)(C(=O)O)c1ccc(C(=O)O)cc1 (racemic)	-0.15
c1cc(CN2CCCNCCNCCCNCC2)ccc1CN1CCCNCCNCCCNCC1 [Plerixafor (octahydrochloride)]	-0.2
CN1CCC[C@@H]1CCO[C@](C)(c1ccccc1)c1ccc(Cl)cc1 [Clemastine (fumarate)]	0.67
Cc1nc2c([nH]1)-c1ccccc1N(C(=O)c1ccc(NC(=O)c3ccccc3-c3ccccc3)cc1)CC2 [Conivaptan (hydrochloride)]	-0.12
COc1nc(C)cnc1NS(=O)(=O)c1cccnc1-c1ccc(-c2nnco2)cc1 [Zibotentan]	0.01
O=C(Nc1ccccc1)C12CC1C(=NO)c1ccccc1O2 (stereo not given)	-0.05
O=C(CCCN1CCC(O)(c2ccc(Cl)cc2)CC1)c1ccc(F)cc1 [Haloperidol]	-0.47
COc1ccc2cc(OCC3(C(=O)O)CN(C(=O)c4ccc(F)cc4)C3)ccc2c1	-1.11
CC(C)C[C@H](NC(=O)CNC(=O)[C@H](Cc1ccc(O)cc1)NC(=O)[C@H](CO)NC(=O)[C@H](Cc1c[nH]c2ccccc12)NC(=O)[C@H](Cc1cnc[nH]1)NC(=O)[C@@H]1CCC(=O)N1)C(=O)N[C@@H](CCCNC(=N)N)C(=O)N1CCC[C@H]1C(=O)NCC(N)=O [Gonadorelin (acetate)]	-0.42
CN1CCC(=C2c3ccccc3CC(=O)c3sccc32)CC1 [Ketotifen (fumarate)]	-1.17
CN1CCC(OC(c2ccccc2)c2ccccc2)CC1 [Diphenylpyraline (hydrochloride)]	0.18
Cn1c(=O)c2nc[nH]c2n(C)c1=O [Theophylline]	0.53
CC(=O)OCC(=O)[C@@]1(O)[C@H](C)C[C@H]2[C@@H]3CCC4=CC(=O)C=C[C@]4(C)[C@@]3(F)[C@@H](O)C[C@@]21C [Dexamethasone (acetate)]	1.44
